In article PMC10163288:
Some of the results follow.

B1: il2ra_site2_2erj_normal_mot_HHH_b2_00484_af2_000000139_0001_42_55_H_._HHH_b2_04486_0001_0000400022_0000001_0 (protein)
chain: SSSSDEERERLFEEIARLSAELAEKGDPRLFEELEELLELAEELGNEIAARYAEHALEHFKSSSS
B2: il2ra_site1_1z92_normal_mot_HHH_b2_04040_af2_000000124_0001_19_35_H_._HHH_b1_02397_0001_0000300010_0000001_0_af2pred_0001_af2pred_1 (protein)
chain: SSSSSIEEFLEKQLERKAKLGNERAFERLLKDAERALKLAGDEEALEKLEEFARRLEEEMKSSSS
B3: il2ra_site1_2b5i_normal_mot_HHH_b1_06428_000000224_0001_1_17_H_._HHH_b1_06787_0001_0000300016_0000001_0 (protein)
chain: SSSSSEAKEILHLAEEALKRGDEEELEELLEELEELIKESPNPQRRKLLEAVFRTVEEALSSSSS
B4: il2ra_site2_2erj_normal_mot_HHH_b2_00484_af2_000000139_0001_42_55_H_._HHH_b1_02313_0001_0000800029_0000001_0 (protein)
chain: SSSSSSEEEEELAIRIHELFRKARSEEELEEIFEELRRKIEELNSEVLRRYLEHAHKHARSSSSS
B5: il2ra_site1_2b5i_sap_11_mot_HHH_b1_08678_af2_000000008_0001_41_54_H_._HHH_b2_08195_af2_0001_0000100007_0000001_0_0001 (protein)
chain: SSSSELHRFAAELVDKLAEKLGLDDEQFSELTREAVRLIWRGVSEEEIEELVQRLAEELRGSSSS
B6: il2ra_site1_1z92_sap_29_mot_HHH_b1_02756_000000071_0001_20_37_H_._HHH_b1_00020_0001_0000200011_0000001_0_0001_af2pred_0001_af2pred (protein)
chain: TTTEELLREAVEKNDEEELRKFIELLLRDAGDPELVRQLLKILVKRLGLPPEVLERLEELLEELT
B7: il2ra_site1_1z92_normal_mot_934a834d9b8b770824478def2ff2f329_0001_af2_000000088_0001_15_30_H_._HHH_b2_05182_af2_0001_0000400021_0000001_0_af2pred_0001_af2pred_1 … (protein)
chain: SSSSDEEEELVREIVEEYGGDEAVERDAQRFAEFLAEKGVSEEAIERNLRRIVEHAARRENSSSS
B8: il2ra_site2_3nfp_normal_mot_HHH_b1_01086_000000225_0001_20_36_H_._HHH_b2_07947_0001_0000100002_0000001_0_af2pred_0001_1_af2pred_swapped (protein)
chain: SSSSSSDEEEEVEELLEEAKHIDDPHERFAALALAAELAFRARNPELVRLVRELAAKLSSSSSSS
B9: il2ra_site2_2erj_normal_mot_HHH_b1_03609_af2_000000077_0001_42_55_H_._HHH_b1_04957_af2_0001_0000800018_0000001_0 (protein)
chain: SSSSSDEELEKLIEEAEELLKQGNEEEAWKVLRRAAALAFELNDFELWSKIAELLREIGSSSSSS
B10: il2ra_site1_1z92_sap_19_mot_HHH_b1_00697_000000055_0001_1_18_H_._HHH_b1_05485_0001_0000400015_0000001_0_0001_af2pred_0001_af2pred (protein)
chain: GERHVEIAERFAGGDPEKFVRLVLRLLEAAGDLSPEELEKLREELEELLKRDPEKAKELAKEALT
B11: il2ra_site1_1z92_sap_21_mot_HHH_b1_07866_af2_000000238_0001_1_18_H_._HHH_b2_03299_af2_0001_0000100001_0000001_0_0001_af2pred_0001_af2pred (protein)
chain: SSSSSSSEVEEKAEELLKELREEGDEREVRLLEFLLRQVRQFGSPRAKELLEEALEALSSSSSSS
B12: il2ra_site2_2erj_normal_mot_9f5b7fc4e9d6b3037bff8dd1fb84ce76_0001_000000082_0001_16_32_H_._8cccc599a7bb59b440cc763c2d19aad1_0001_af2_0001_0000700015_0000001_0 (protein)
chain: DESLKALVEFVLRGEIPPELAARYLELSAEDSNDPRIRELLELVELLKKGDPEAEELLEEFLEKT
B13: il2ra_site2_3nfp_normal_mot_HHH_b1_05785_af2_000000002_0001_41_57_H_._HHH_b2_02344_0001_0000900037_0000001_0 (protein)
chain: SSSSSEERLLEAALRSLEALQRQGDEEMVELTAEYAKAAAALLNDEETLEEIEQLLREYNSSSSS
B14: il2ra_site1_1z92_normal_mot_HHH_b2_08033_af2_000000151_0001_1_18_H_._HHH_b1_08599_af2_0001_0000100004_0000001_0 (protein)
chain: SSSSDEDEEIQELYKQATELLRNGDPEEAEEVLKRAEELAEELGDETLARDLREMLRFIKSSSSS
B15: il2ra_site2_2erj_normal_mot_HHH_b1_07584_000000201_0001_42_55_H_._HHH_b1_04993_af2_0001_0000500021_0000001_0 (protein)
chain: SSSSSSDEVEELAAEAVEAAHNGNPEEARKILEQAEELAKELNNETLERYVELALRHLSSSSSSS
B16: il2ra_site1_2b5i_normal_mot_HHH_b2_04910_000000118_0001_1_19_H_._HHH_b2_07216_0001_0000100001_0000001_1 (protein)
chain: SSSSSEETREARELFHEADELDKEGDPEEAERTLEEALEIARQGGSRQLARMIESALRQLESSSS
B17: il2ra_site1_3nfp_sap_26_mot_HHH_b1_05490_000000239_0001_1_19_H_._HHH_b2_01214_af2_0001_0000100005_0000001_0_0001_af2pred_0001_af2pred (protein)
chain: TTEELLKRLVKNAVESNNPRQLRRILRDLERYLGDPEEAERVLEELIEEVLGDPEEAEKLVEKAK
B18: il2ra_site2_3nfp_sap_16_mot_HHH_b2_08046_000000127_0001_20_37_H_._8323a3979fe47b92d96c7c6278d960ae_0001_0001_0000100012_0000001_0_0001_af2pred_0001_af2pred_1 (protein)
chain: SSSSDEAERLVERAEELLEEGDLEEAERILKEARKQAAEKGDFELFARILELLELLERLGSSSSS
B19: il2ra_site1_2b5i_sap_12_mot_HHH_b1_04915_000000205_0001_19_36_H_._HHH_b2_03210_af2_0001_0000200012_0000001_1_0001 (protein)
chain: SSSSDLLERVQELFAEASRLFLKGNPEEARKVLEEAHELAEEAGDEKTREDIERMLERINSSSSS
B20: il2ra_site2_3nfp_normal_mot_HHH_b1_03236_af2_000000201_0001_37_52_H_._HHH_b2_04798_af2_0001_0000100002_0000001_1 (protein)
chain: SSSSSEEVEELLEELKRAIEEGDEELARKLIRKLVELAFENDDHELFAIVNELAELFYRRFSSSS
B21: il2ra_site1_3nfp_sap_14_mot_HHH_b2_03420_af2_000000062_0001_42_56_H_._437ce1e4c44253f5d945988760af7e00_0001_af2_0001_0000500029_0000001_1_0001 (protein)
chain: SDEYLERFIEDALRRNANVDHVEVEVRDHHIHVTVEGTDEAAEEAEEIAKRFAELSNVPLTFTTL
B22: il2ra_site1_2b5i_normal_mot_HHH_b2_04910_000000118_0001_1_19_H_._HHH_b1_07584_af2_0001_0000100006_0000001_0_af2pred_dldesign_0_af2pred (protein)
chain: SSSSSTPAELFRKKFTEANKLKQAGKEEEAKKVLEELLEELKKAGKAYLVKIVEIALSELSSSSS
B23: il2ra_site1_3nfp_sap_17_mot_HHH_b1_03125_af2_000000134_0001_40_57_H_._efb1e6a814c01858843eeca3a22dd67d_0001_af2_0001_0000200008_0000001_0_0001_af2pred_0001_af2p … (protein)
chain: TVLEFLARAVANAPDPEKAARHVIRAFRRSAPDPEVVEEFVRKIIELLEELGNPEAAKILEELLK
B24: il2ra_site1_2b5i_normal_mot_f5ff40796168375b462bec8614a1db4a_0001_1_000000138_0001_53_65_H_._HHH_b2_02707_0001_0000100003_0000001_0_af2pred_dldesign_0_af2pred (protein)
chain: SSSSSALELVQELLEEAKRLKKENKPLEVKKLLTLARRIARRAEDAEALALVEKVEAELKKSSSS
B25: il2ra_site2_2erj_sap_23_mot_HHH_b1_07741_000000192_0001_1_20_H_._HHH_b2_04348_0001_0000100001_0000001_0_0001 (protein)
chain: SSSSDTEEEVEKVLEEAREAYEEGDLRRVYELAVEALRIASENNDDEALRLVREFFEEIASSSSS
B26: il2ra_site1_1z92_sap_25_mot_HHH_b2_05734_000000004_0001_1_18_H_._ems_3hM_3395_0001_0000100008_0000001_0_0001_af2pred_dldesign_0_af2pred (protein)
chain: AEEIEKLIIDALKRAGGDAEKAIEILKEEYEKTKDPLYRDAYIILKKLVKHKSNELDHAIEQALE
B27: il2ra_site1_2b5i_normal_mot_2cbe48e66a1f39b3fed734b245ab0a04_0001_000000015_0001_17_31_H_._HHH_b2_02007_0001_0000200015_0000001_0_af2pred_dldesign_0_af2pred (protein)
chain: SSSSSDPEALRAEIERLIEEAKTLKDPIEQERVLSRALFLARKIGDAEWIARVEAVYNELSSSSS
B28: il2ra_site1_3nfp_normal_mot_ems_3hM_3354_af2_000000165_0001_44_63_H_._HHH_b1_00853_af2_0001_0000400027_0000001_0 (protein)
chain: SSSSDRADKFLEQLAREAFENNDRLQLRALARIVEEALRAFGDPTAEELLELIRELLEELSSSSS
B29: il2ra_site2_3nfp_normal_mot_HHH_b1_01086_000000225_0001_20_36_H_._HHH_b2_03611_0001_0000300035_0000001_0 (protein)
chain: SSSSSEAEEELERLLRELEELLKRDPEEAHRLSARALNLAYEARDFEIFARLADISFALASSSSS
B30: il2ra_site1_1z92_normal_mot_HHH_b1_02849_000000017_0001_22_39_H_._HHH_b2_00342_af2_0001_0000200038_0000001_0 (protein)
chain: SSSSSSLEEAVEILLQAARRAEEAGDPERAEEFLRFAFEYAKDLGSPLLEEVEELLREIDSSSSS
B31: il2ra_site2_2erj_sap_18_mot_af86707857d369f3e1d85dcabc5f9321_0001_000000201_0001_14_29_H_._HHH_b2_07982_0001_0000700014_0000001_0_0001 (protein)
chain: SSSSSDELHRAYELAALLLHLVARNDREEFEEIAEEFREIVERLNSDNAREFLEQMEKQLSSSSS
B32: il2ra_site2_2erj_sap_21_mot_6ec3e94b46d95805cdcdc10c0c108f03_0001_af2_000000040_0001_36_50_H_._HHH_b2_04396_0001_0000200006_0000001_0_0001 (protein)
chain: SSSSSEWEEAARLSVLLLEAARKNDEELLEELRREAEELIKEIKNPAARRYLEFALRDVERSSSS
B33: il2ra_site2_3nfp_normal_mot_HHH_b2_04451_000000238_0001_21_37_H_._HHH_b2_06282_af2_0001_0000700018_0000001_0 (protein)
chain: SSSSDEEERLEQLLEEAERLIEEGDRYEALEVVAEATELALRLNDEEVDRILLELFELIQSSSSS
B34: il2ra_site1_3nfp_normal_mot_HHH_b1_06850_000000137_0001_20_36_H_._HEEHE_2134_0001_0000200026_0000001_0 (protein)
chain: SDEYLSEAIEKDLEERANVDHVEVEVSNQHIHVTVEGTDEAAQEAEEIAERLAKTANIPLTFTTL
B35: il2ra_site2_2erj_normal_mot_HHH_b2_03913_af2_000000182_0001_1_19_H_._HHH_b2_00910_af2_0001_0000200004_0000001_0 (protein)
chain: SSSSQEAAELFAEAWREAAKLFRNGNPEEAERVLEEYAELVRELGDERALEAIERALKFLTSSSS
B36: il2ra_site1_2b5i_normal_mot_HHH_b2_07442_af2_000000069_0001_1_16_H_._HHH_b2_08090_af2_0002_0000200011_0000001_1_af2pred_0001_af2pred_1 (protein)
chain: SSSSSDDDHRVQELYREASELYRNGNPEEARKVLEEALEIAEEGGDPRLREDVERFIEMASSSSS
B37: il2ra_site1_2b5i_sap_22_mot_HHH_b1_01934_af2_000000023_0001_42_56_H_._98c847d54cb06549f1b43bebfb1599e3_0001_af2_0001_0000100001_0000001_0_0001_af2pred_dldesign_ … (protein)
chain: SSSSSLFDRVEELYKKALELYKKGKKEEAKELLEEALRLAREAKDEKIAADLEYLIEYLKSSSSS

Molecular target: il2ra, P01589
Assay: yeast display titration

Apparent Kd, inactive:
B1 no binding seen
B2 no binding seen
B3 no binding seen
B4 no binding seen
B5 > 2.63 nM
B6 no binding seen
B7 no binding seen
B8 no binding seen
B9 no binding seen
B10 no binding seen
B11 no binding seen
B12 no binding seen
B13 no binding seen
B14 no binding seen
B15 no binding seen
B16 no binding seen
B17 no binding seen
B18 no binding seen
B19 no binding seen
B20 no binding seen
B21 no binding seen
B22 no binding seen
B23 no binding seen
B24 no binding seen
B25 no binding seen
B26 no binding seen
B27 no binding seen
B28 no binding seen
B29 no binding seen
B30 no binding seen
B31 no binding seen
B32 no binding seen
B33 no binding seen
B34 no binding seen
B35 no binding seen
B36 no binding seen
B37 no binding seen

Taken from the entries so far for reference:
Apparent Kd, inactive:
B4 no binding seen
B5 > 2.63 nM
B6 no binding seen
B7 no binding seen
B8 no binding seen
B9 no binding seen
B10 no binding seen
B11 no binding seen
B12 no binding seen
